Measurements as given in article PMC11263355.
No constants are given. Whether binding was seen depends on the method and setting. In cells and extracts the contact can be indirect. Some binding calls cover weakened binding; strength is not graded here.

The chains behind the UniProt entries cited, without tags or fusion partners. Residues count along the entry.
UniProt P98088, residues 28-5654: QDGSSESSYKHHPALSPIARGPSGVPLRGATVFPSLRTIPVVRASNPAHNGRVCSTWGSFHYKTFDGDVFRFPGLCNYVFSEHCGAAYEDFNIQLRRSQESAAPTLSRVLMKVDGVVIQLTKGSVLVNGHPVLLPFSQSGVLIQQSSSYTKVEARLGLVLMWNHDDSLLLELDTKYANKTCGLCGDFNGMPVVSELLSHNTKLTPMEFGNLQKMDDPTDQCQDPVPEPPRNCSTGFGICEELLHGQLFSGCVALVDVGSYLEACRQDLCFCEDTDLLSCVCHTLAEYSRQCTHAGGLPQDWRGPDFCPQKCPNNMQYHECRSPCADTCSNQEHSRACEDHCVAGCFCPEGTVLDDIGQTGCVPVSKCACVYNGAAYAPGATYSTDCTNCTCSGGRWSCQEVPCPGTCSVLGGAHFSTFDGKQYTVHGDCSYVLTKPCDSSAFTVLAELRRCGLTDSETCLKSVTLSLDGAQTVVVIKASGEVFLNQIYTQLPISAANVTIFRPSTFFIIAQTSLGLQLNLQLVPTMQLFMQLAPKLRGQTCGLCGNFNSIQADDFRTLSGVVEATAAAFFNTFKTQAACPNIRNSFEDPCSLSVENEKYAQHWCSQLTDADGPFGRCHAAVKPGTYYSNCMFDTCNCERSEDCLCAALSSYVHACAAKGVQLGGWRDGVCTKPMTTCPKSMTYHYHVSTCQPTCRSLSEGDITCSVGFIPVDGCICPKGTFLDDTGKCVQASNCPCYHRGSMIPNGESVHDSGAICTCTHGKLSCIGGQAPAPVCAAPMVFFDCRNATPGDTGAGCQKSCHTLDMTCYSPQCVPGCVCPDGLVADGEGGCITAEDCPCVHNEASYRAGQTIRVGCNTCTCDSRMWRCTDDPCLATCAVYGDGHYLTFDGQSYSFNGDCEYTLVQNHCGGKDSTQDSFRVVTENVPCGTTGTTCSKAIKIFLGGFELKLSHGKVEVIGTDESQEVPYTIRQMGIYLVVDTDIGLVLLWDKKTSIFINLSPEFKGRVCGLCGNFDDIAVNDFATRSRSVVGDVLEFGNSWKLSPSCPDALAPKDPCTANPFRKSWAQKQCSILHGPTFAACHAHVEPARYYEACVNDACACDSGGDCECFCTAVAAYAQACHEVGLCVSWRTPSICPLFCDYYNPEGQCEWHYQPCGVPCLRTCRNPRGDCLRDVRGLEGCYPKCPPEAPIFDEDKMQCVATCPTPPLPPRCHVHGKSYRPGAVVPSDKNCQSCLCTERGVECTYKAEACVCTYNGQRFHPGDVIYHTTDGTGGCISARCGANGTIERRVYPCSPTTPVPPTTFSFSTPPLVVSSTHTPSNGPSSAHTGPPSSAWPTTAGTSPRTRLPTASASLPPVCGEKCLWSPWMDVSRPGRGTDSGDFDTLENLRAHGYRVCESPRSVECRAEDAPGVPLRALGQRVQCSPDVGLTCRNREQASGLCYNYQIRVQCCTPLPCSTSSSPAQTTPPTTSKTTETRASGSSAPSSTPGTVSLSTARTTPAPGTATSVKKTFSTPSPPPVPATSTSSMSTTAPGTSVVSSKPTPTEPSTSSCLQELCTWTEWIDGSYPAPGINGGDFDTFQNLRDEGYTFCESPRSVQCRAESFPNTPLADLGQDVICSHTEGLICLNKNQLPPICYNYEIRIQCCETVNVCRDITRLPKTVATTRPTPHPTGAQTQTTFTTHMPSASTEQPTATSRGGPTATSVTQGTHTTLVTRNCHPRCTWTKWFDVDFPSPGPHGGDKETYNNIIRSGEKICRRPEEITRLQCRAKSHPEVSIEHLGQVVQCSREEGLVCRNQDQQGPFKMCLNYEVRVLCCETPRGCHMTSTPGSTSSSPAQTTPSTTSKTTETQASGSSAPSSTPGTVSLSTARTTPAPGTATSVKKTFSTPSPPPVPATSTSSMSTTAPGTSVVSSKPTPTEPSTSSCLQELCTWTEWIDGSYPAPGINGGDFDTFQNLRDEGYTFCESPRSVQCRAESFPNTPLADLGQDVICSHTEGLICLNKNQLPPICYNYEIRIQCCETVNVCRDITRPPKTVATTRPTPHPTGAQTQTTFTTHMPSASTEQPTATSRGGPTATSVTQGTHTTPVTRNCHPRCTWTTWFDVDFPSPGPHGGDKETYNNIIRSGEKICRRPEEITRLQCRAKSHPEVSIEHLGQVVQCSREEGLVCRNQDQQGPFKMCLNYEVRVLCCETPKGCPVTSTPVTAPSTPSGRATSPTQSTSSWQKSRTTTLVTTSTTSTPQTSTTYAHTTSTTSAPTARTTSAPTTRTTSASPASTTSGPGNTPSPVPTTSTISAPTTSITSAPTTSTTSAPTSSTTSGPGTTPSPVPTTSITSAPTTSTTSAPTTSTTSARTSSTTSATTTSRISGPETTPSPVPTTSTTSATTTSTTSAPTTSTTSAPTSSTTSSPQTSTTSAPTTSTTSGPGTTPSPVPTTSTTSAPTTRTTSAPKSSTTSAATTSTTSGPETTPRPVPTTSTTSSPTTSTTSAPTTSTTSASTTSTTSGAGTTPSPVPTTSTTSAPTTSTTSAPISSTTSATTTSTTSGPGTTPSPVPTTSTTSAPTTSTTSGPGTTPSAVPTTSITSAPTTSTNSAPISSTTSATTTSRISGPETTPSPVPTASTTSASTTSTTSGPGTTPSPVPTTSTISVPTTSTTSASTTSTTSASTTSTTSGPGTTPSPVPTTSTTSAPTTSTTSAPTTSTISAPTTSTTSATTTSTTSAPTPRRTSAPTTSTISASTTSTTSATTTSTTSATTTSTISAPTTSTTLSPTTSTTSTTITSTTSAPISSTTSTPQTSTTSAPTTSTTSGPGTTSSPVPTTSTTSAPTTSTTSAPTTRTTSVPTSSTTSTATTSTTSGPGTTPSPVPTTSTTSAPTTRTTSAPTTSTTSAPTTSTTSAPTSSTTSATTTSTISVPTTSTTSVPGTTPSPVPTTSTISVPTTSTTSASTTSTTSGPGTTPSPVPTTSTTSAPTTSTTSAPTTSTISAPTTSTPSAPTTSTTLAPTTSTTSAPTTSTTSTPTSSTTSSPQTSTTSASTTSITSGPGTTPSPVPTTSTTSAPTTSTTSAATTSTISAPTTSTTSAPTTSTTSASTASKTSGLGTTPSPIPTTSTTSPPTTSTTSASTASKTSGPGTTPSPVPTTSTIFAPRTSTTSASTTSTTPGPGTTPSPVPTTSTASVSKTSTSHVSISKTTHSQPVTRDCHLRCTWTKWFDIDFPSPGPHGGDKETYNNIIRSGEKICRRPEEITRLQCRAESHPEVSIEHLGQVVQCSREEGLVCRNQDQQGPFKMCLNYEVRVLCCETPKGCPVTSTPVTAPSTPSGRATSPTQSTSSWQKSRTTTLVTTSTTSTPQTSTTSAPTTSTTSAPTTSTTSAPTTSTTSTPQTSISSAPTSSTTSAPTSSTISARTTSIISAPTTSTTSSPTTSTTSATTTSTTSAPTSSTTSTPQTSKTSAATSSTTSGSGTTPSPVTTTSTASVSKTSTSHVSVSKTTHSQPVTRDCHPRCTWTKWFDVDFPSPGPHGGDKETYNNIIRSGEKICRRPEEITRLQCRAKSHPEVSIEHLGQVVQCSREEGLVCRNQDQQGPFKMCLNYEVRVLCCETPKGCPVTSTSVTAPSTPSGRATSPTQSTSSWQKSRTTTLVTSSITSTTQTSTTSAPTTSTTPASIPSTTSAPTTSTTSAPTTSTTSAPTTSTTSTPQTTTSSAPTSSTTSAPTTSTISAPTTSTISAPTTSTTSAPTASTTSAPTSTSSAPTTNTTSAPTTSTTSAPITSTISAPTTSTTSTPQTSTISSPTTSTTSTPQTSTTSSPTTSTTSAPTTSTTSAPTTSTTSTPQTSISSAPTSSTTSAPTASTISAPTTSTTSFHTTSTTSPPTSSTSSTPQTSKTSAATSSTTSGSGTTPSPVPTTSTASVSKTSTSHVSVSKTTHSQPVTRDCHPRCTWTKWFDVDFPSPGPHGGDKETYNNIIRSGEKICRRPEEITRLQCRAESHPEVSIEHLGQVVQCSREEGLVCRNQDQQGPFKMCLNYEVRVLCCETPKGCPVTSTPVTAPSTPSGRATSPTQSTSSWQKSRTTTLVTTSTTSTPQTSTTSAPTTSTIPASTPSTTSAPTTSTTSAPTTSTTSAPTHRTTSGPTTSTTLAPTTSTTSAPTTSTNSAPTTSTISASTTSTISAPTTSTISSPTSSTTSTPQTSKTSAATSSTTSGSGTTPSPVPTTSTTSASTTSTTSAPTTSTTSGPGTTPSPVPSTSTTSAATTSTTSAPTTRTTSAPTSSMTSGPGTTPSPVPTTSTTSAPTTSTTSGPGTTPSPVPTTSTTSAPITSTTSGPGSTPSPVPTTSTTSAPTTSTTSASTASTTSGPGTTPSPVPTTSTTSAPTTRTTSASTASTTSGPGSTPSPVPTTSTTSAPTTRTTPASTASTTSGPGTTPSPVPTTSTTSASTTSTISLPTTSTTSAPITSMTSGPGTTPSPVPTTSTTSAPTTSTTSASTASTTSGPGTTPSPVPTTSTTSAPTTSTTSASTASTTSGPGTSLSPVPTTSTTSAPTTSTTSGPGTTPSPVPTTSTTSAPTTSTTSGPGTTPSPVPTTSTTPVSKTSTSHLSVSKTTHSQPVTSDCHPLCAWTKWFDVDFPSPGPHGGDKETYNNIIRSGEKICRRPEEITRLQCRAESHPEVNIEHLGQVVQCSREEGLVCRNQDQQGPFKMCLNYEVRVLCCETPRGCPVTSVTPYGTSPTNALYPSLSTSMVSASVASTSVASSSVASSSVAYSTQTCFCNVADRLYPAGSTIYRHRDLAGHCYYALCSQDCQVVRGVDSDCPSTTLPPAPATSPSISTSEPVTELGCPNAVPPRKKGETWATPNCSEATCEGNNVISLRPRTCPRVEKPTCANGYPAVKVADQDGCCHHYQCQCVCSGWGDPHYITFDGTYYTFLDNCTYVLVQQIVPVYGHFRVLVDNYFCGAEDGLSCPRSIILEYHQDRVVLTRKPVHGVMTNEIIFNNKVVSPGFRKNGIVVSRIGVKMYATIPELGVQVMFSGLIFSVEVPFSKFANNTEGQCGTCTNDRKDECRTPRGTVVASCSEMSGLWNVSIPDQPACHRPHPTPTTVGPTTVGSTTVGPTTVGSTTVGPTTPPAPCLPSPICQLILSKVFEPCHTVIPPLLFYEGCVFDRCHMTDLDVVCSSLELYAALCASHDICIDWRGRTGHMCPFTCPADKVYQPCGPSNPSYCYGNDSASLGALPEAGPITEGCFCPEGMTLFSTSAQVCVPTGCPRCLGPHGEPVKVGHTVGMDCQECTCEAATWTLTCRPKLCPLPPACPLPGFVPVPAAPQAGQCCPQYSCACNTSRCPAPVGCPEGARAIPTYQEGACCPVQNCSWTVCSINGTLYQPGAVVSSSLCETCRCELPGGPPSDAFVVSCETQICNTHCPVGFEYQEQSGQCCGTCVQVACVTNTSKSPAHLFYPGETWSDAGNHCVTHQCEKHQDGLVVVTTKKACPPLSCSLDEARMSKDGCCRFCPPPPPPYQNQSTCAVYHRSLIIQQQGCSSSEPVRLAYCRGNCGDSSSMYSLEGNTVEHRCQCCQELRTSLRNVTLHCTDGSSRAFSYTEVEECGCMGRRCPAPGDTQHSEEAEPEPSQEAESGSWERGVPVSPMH
UniProt P07355: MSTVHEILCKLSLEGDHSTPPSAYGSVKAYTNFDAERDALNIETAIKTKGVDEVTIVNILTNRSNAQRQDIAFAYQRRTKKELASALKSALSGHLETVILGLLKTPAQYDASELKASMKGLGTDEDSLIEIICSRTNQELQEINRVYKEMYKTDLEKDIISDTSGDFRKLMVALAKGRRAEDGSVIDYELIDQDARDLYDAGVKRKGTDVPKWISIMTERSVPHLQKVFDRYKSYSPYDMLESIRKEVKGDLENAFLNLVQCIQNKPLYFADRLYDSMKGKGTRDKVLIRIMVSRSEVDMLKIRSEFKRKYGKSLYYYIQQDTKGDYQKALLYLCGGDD

Target: Mucin 5ac (MUC5AC) (human (endogenous in A549-BrM)) (UniProt P98088)
Assay: co-IP; IP and reciprocal IP from 500 ug lysate of A549-BrM.scr and A549-BrM5AC.sh1 cells, overnight with anti-MUC5AC (CLH2) or anti-ANXA2 antibody (2 ug), Protein A/G agarose beads 4 h at 4 °C; 2% SDS agarose gel and blot

Annexin A2 (ANXA2) (from UniProt P07355 1-339)
binding: binds
